Measurements reported in PubChem BioAssay AID1259254 (NCATS, 2017)
In all, the deposit lists about 59,000 reagents; shown is an unselected part. About 1,550 of all reagents (2.6%) count as active. 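G2 share is only a proxy for re-replication; each gene was hit by three separate siRNAs, and active genes were retested.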 Raw values are not corrected between plates. Reagents against one gene are numbered here. Not stated in the record: the amount of reagent.

Test: 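Finding genes that stop cells copying their DNA twice in one cycle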 (primary screen)
Cell system: human HCT116 colorectal cancer cells
Knock-down reagent: single siRNA against human genes
Duration: 3 days
Measurement: 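Nuclei stained with Hoechst and imaged; cell-cycle phase assigned by DNA content; G2 share scaled per plate, non-targeting siRNA 0%, GMNN siRNA 100%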
Reading the numbers: G2 robust z-score and G2 cells, % of GMNN control: higher = more G2 cells, more excess DNA replication; raw share of cells in G2: higher = larger share of cells with G2 DNA content
Active means: 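An siRNA counts as active if its G2 robust z-score lies at least 5 MADs above the screen median; here such calls match roughly 38% of GMNN control or more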

Gene | reagent no. | G2 robust z-score | G2 cells, % of GMNN control | raw share of cells in G2 (%) | outcome
POLR2M | 1 | -0.944 | -3.68 | 3.9 | inactive
POLR2M | 2 | -0.498 | -0.537 | 4.59 | inactive
POLR2M | 3 | 0.34 | 5.36 | 6.13 | inactive
CALU | 1 | 1.28 | 12 | 8.21 | inactive
CALU | 2 | -0.131 | 2.05 | 5.81 | inactive
CALU | 3 | -0.439 | -0.119 | 3.06 | inactive
MICALL2 | 1 | 1.51 | 13.6 | 6.09 | inactive
MICALL2 | 2 | 0.924 | 9.47 | 8.37 | inactive
MICALL2 | 3 | 0.614 | 7.29 | 7.49 | inactive
FSTL4 | 1 | -0.478 | -0.394 | 3.4 | inactive
FSTL4 | 2 | -1.07 | -4.53 | 3.97 | inactive
FSTL4 | 3 | 2.57 | 21 | 12.2 | inactive
IFT54 | 1 | -1.18 | -5.34 | 2.41 | inactive
IFT54 | 2 | 0.00925 | 3.03 | 5.25 | inactive
IFT54 | 3 | 1.86 | 16.1 | 8.92 | inactive
NAA38 | 1 | -0.779 | -2.51 | 1.64 | inactive
NAA38 | 2 | -0.772 | -2.47 | 3.29 | inactive
NAA38 | 3 | -0.867 | -3.13 | 2.53 | inactive
PTPN6 | 1 | -1 | -4.07 | 3.47 | inactive
PTPN6 | 2 | -0.579 | -1.11 | 3.97 | inactive
PTPN6 | 3 | 3.45 | 27.3 | 11.7 | inactive
NOP10 | 1 | -0.428 | -0.0466 | 4.51 | inactive
NOP10 | 2 | 0.664 | 7.64 | 7.3 | inactive
NOP10 | 3 | 0.127 | 3.86 | 4.37 | inactive
KLF7 | 1 | -0.101 | 2.26 | 4.28 | inactive
KLF7 | 2 | -0.164 | 1.81 | 6.79 | inactive
KLF7 | 3 | -0.499 | -0.543 | 3.11 | inactive
THPO | 1 | -0.78 | -2.52 | 3.68 | inactive
THPO | 2 | 0.457 | 6.18 | 7.76 | inactive
THPO | 3 | 0.413 | 5.87 | 5.9 | inactive
MIS12 | 1 | -0.984 | -3.96 | 1.65 | inactive
MIS12 | 2 | 0.105 | 3.71 | 6.2 | inactive
MIS12 | 3 | -0.452 | -0.213 | 4.51 | inactive

A stretch from the list above:
Gene | reagent no. | G2 robust z-score | G2 cells, % of GMNN control | raw share of cells in G2 (%) | outcome
PTPN6 | 1 | -1 | -4.07 | 3.47 | inactive
PTPN6 | 2 | -0.579 | -1.11 | 3.97 | inactive
PTPN6 | 3 | 3.45 | 27.3 | 11.7 | inactive
NOP10 | 1 | -0.428 | -0.0466 | 4.51 | inactive
NOP10 | 2 | 0.664 | 7.64 | 7.3 | inactive
NOP10 | 3 | 0.127 | 3.86 | 4.37 | inactive
KLF7 | 1 | -0.101 | 2.26 | 4.28 | inactive

The listing continues:
Gene | reagent no. | G2 robust z-score | G2 cells, % of GMNN control | raw share of cells in G2 (%) | outcome
IRAK1 | 1 | -0.039 | 2.69 | 6.5 | inactive
IRAK1 | 2 | -1.07 | -4.59 | 3.86 | inactive
IRAK1 | 3 | -0.0747 | 2.44 | 4.89 | inactive
LINC02027 | 1 | -0.188 | 1.64 | 4.22 | inactive
LINC02027 | 2 | -0.484 | -0.436 | 3.38 | inactive
LINC02027 | 3 | 1.94 | 16.6 | 8.73 | inactive
TPPP2 | 1 | 1.12 | 10.8 | 8.44 | inactive
TPPP2 | 2 | 2.1 | 17.7 | 8.61 | inactive
TPPP2 | 3 | -0.376 | 0.32 | 1.91 | inactive
PSMA8 | 1 | 3.47 | 27.3 | 17.2 | inactive
PSMA8 | 2 | 1.16 | 11.2 | 8.15 | inactive
PSMA8 | 3 | -0.13 | 2.05 | 5.03 | inactive
VIL1 | 1 | 0.189 | 4.3 | 7.41 | inactive
VIL1 | 2 | 0.704 | 7.92 | 7.21 | inactive
VIL1 | 3 | 0.513 | 6.58 | 6.64 | inactive
MYEOV | 1 | 0.151 | 4.03 | 5.93 | inactive
MYEOV | 2 | 3.34 | 26.4 | 15.4 | inactive
MYEOV | 3 | 2.1 | 17.7 | 9.5 | inactive
FKBP10 | 1 | 0.242 | 4.67 | 5.92 | inactive
FKBP10 | 2 | -0.679 | -1.81 | 4.9 | inactive
FKBP10 | 3 | -0.62 | -1.39 | 3.85 | inactive
XTBD1 | 1 | -0.451 | -0.203 | 4 | inactive
XTBD1 | 2 | 0.488 | 6.4 | 5.01 | inactive
XTBD1 | 3 | 0.0664 | 3.43 | 4.01 | inactive
NPAT | 1 | 6.46 | 48.4 | 25.6 | active
NPAT | 2 | -0.301 | 0.851 | 4.56 | inactive
NPAT | 3 | -1.15 | -5.13 | 1.5 | inactive
CHRM2 | 1 | -1.14 | -5.03 | 4.04 | inactive
CHRM2 | 2 | 0.56 | 6.9 | 6.93 | inactive
CHRM2 | 3 | 0.0578 | 3.37 | 4.3 | inactive
CCDC88A | 1 | -0.451 | -0.207 | 4.44 | inactive
CCDC88A | 2 | -0.687 | -1.87 | 3.37 | inactive
CCDC88A | 3 | -0.145 | 1.95 | 3.76 | inactive
CCDC88A | 4 | 0.58 | 7.04 | 6.63 | inactive
CCDC88A | 5 | 0.523 | 6.65 | 5.46 | inactive
CCDC88A | 6 | 0.584 | 7.07 | 5.86 | inactive
